At least one peptide structure holds a part that was inferred or is arguable (an end, a ring closure or a residue).
Target: BoNT A light chain (BoNT A Lc) (Clostridium botulinum, UniProt P0DPI0)
Assay type: biochemical

Protein sequences, listed by entry. Tags and fused reporters are not part of them. Residues count along the entry.
UniProt P0DPI0, 2-448 limits assumed: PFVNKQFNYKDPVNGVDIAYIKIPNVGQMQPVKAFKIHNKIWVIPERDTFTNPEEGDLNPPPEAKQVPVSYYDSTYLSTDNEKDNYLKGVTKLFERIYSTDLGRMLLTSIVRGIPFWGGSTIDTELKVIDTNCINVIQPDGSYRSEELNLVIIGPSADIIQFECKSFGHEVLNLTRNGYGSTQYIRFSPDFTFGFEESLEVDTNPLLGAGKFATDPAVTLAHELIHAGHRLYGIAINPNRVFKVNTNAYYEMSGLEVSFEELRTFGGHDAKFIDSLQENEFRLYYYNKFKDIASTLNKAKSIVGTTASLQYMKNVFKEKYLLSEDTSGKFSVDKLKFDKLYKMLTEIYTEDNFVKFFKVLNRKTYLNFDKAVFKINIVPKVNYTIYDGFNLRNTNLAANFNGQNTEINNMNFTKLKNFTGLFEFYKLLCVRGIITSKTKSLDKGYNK

Substance: Ac-RVRIDAANQRATRM-NH2 [Peptide P6, R V R I D A A N Q R A T R M]
- effect of substitution or truncation on hydrolysis rate (in words): had no effect

From patent US20120202754A1 (priority 2009, published 2012)
